Measurements from publication PMC10065078.
No constants are given. Whether binding was seen depends on the method and setting. Binding seen in cells or lysates may run through a third protein. Some binding calls cover weakened binding; strength is not graded here.

Chains of the proteins cited; added tags and fusions are not shown.
UniProt P43006: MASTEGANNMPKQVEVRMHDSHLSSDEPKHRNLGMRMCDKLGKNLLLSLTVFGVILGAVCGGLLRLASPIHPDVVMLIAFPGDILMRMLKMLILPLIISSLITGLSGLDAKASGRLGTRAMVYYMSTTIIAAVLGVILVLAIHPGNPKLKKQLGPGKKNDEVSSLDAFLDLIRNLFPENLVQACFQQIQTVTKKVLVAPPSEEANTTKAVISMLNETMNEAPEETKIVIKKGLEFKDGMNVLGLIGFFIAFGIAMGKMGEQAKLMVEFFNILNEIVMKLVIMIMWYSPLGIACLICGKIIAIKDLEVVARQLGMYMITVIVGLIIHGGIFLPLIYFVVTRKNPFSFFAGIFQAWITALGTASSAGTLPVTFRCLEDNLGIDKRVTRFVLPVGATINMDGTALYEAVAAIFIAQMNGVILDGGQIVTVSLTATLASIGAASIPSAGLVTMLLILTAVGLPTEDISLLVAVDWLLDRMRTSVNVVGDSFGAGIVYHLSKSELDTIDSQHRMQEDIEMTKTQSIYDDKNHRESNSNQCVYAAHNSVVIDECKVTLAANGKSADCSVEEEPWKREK

Molecular target: T1, O-GlcNAc transferase (UniProt Q8CGY8)
T1 sequence: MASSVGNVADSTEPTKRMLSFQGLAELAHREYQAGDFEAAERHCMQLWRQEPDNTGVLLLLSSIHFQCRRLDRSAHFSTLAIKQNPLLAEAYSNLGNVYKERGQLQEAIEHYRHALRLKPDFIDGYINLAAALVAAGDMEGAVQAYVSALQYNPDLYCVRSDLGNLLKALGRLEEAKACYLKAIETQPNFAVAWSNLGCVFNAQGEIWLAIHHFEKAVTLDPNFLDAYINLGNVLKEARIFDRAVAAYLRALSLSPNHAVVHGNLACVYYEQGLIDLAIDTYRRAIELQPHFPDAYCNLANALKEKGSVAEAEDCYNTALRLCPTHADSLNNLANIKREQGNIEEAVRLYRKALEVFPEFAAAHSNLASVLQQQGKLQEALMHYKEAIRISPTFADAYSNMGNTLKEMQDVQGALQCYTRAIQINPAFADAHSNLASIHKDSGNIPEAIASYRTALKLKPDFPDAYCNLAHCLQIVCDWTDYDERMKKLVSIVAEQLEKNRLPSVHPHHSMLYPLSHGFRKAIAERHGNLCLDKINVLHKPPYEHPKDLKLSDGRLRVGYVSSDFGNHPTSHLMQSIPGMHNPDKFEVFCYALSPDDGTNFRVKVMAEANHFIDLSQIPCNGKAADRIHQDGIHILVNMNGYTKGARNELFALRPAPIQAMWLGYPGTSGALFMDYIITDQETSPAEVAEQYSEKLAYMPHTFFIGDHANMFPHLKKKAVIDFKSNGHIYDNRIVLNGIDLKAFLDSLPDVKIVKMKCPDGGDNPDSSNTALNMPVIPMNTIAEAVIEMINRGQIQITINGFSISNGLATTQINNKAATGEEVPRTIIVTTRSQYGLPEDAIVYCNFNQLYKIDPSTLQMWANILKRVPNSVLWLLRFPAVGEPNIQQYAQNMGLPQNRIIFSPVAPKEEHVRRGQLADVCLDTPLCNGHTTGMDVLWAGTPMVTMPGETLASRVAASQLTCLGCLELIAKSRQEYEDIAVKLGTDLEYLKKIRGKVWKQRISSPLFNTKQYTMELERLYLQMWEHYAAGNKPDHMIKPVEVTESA
Experiment: co-IP; lysate of cultured astrocytes, endogenous proteins; which protein was precipitated is not told in the text shown

binding: binds
Substance: glutamate transporter-1 (from UniProt P43006 1-572)
